{"source": "the supplement of paper PMC8728848", "binders": {"B1": {"name": "PX14351B-bth-512-36-512 (Bacteroides thetaiotaomicron) (protein)", "chain": "ASETQQWKTLEDTRSALMGVYGLTRAALADNNTHWICGDLRKGDFTVYKRSDLQAVSDNELNKPYDLLKKVSNWRRFYAVINAASVFMEKAPRTVELDRSYSEQNLKYDIAQVRALRAFAYFYMVRIWGDVPLVTYSYDNGTFPSMPRTDAQTVLSYAKAELLTAIEDLPYQYGTQTNLYYGSYGAQWQGKLFNKLSAYSVLAHICAWQGNYAEAETYSAFIIDHASEINAKYTSIADLTSETGLFYSNASVKGSRILGFNFAHNDNEATQSGHLEQLTLAYPLVQKSYPEIYISKDSLFSIFTNFDDLRFGIIDTIKYSSYYVQNLNEETPVFSKIKIIQDGSAKDNDFGVFGSSIVFTRLEDITLLRAEALCALNRSTEAVSYLNMIRTNRGLREVSFKKDFGNNRESLIAEIFEERRRELMGEGWRWYDLVRRQKLMKDNEAFLRLISSGGIYWPVSEDIITANSQIEQNEFWK"}}, "experiment_in_all_cases": "glycan array binding signal (z-score within array); higher = stronger binding", "settings_in_all_cases": "glycan notation: IUPAC condensed, linker removed", "key": {"[1]": {"molecular_target": "Neu5Ac(a2-3)[GalNAc(b1-4)]Gal(b1-4)GlcNAc", "outline": "(§1)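 Glycan array data were curated from 3228 arrays in the Consortium for Functional Glycomics database and kept only where the protein sequence was available. Glycan names were converted to IUPAC-condensed notation, and columns mapping to the same glycan were averaged. The binding signal is a within-array Z-score, averaged across arrays of the same protein sequence at different concentrations or buffers and across linkers. Negative Z-scores can be read as non-binding.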"}, "[2]": {"molecular_target": "Neu5Ac(a2-3)[GalNAc(b1-4)]Gal(b1-4)GlcNAc(b1-3)GalNAc", "outline": "as §1"}, "[3]": {"molecular_target": "Neu5Ac(a2-3)[Neu5Ac(a2-6)]GalNAc", "outline": "as §1"}, "Neu5Ac(a2-6)Gal": {"molecular_target": "Neu5Ac(a2-6)Gal", "outline": "as §1"}, "[4]": {"molecular_target": "Neu5Ac(a2-6)Gal(b1-3)GlcNAc(b1-3)[Gal(b1-4)GlcNAc(b1-6)]Gal(b1-4)Glc", "outline": "as §1"}, "Neu5Ac(a2-6)Gal(b1-4)Glc": {"molecular_target": "Neu5Ac(a2-6)Gal(b1-4)Glc", "outline": "as §1"}, "[5]": {"molecular_target": "Neu5Ac(a2-6)Gal(b1-4)GlcNAc", "outline": "as §1"}, "[6]": {"molecular_target": "Neu5Ac(a2-6)Gal(b1-4)GlcNAc(b1-2)Man", "outline": "as §1"}, "[7]": {"molecular_target": "Neu5Ac(a2-6)Gal(b1-4)GlcNAc(b1-2)Man(a1-3)Man(b1-4)GlcNAc(b1-4)GlcNAc", "outline": "as §1"}, "[8]": {"molecular_target": "Neu5Ac(a2-6)Gal(b1-4)GlcNAc(b1-2)Man(a1-3)[Gal(b1-4)GlcNAc(b1-2)Man(a1-6)]Man(b1-4)GlcNAc(b1-4)GlcNAc", "outline": "as §1"}, "[9]": {"molecular_target": "Neu5Ac(a2-6)Gal(b1-4)GlcNAc(b1-2)Man(a1-3)[GlcNAc(b1-2)Man(a1-6)]Man(b1-4)GlcNAc(b1-4)GlcNAc", "outline": "as §1"}, "[10]": {"molecular_target": "Neu5Ac(a2-6)Gal(b1-4)GlcNAc(b1-2)Man(a1-3)[GlcNAc(b1-4)][Neu5Ac(a2-6)Gal(b1-4)GlcNAc(b1-2)Man(a1-6)]Man(b1-4)GlcNAc(b1-4)GlcNAc", "outline": "as §1"}, "[11]": {"molecular_target": "Neu5Ac(a2-6)Gal(b1-4)GlcNAc(b1-2)Man(a1-3)[Man(a1-6)]Man(b1-4)GlcNAc(b1-4)GlcNAc", "outline": "as §1"}, "[12]": {"molecular_target": "Neu5Ac(a2-6)Gal(b1-4)GlcNAc(b1-2)Man(a1-3)[Neu5Ac(a2-3)Gal(b1-4)GlcNAc(b1-2)Man(a1-6)]Man(b1-4)GlcNAc(b1-4)GlcNAc", "outline": "as §1"}, "[13]": {"molecular_target": "Neu5Ac(a2-6)Gal(b1-4)GlcNAc(b1-2)Man(a1-3)[Neu5Ac(a2-6)Gal(b1-4)GlcNAc(b1-2)Man(a1-6)]Man(b1-4)GlcNAc(b1-4)GlcNAc", "outline": "as §1"}, "[14]": {"molecular_target": "Neu5Ac(a2-6)Gal(b1-4)GlcNAc(b1-2)Man(a1-3)[Neu5Ac(a2-6)Gal(b1-4)GlcNAc(b1-2)Man(a1-6)]Man(b1-4)GlcNAc(b1-4)[Fuc(a1-6)]GlcNAc", "outline": "as §1"}, "[15]": {"molecular_target": "Neu5Ac(a2-6)Gal(b1-4)GlcNAc(b1-2)Man(a1-6)Man(b1-4)GlcNAc(b1-4)GlcNAc", "outline": "as §1"}, "[16]": {"molecular_target": "Neu5Ac(a2-6)Gal(b1-4)GlcNAc(b1-2)Man(a1-6)[Gal(b1-4)GlcNAc(b1-2)Man(a1-3)]Man(b1-4)GlcNAc(b1-4)GlcNAc", "outline": "as §1"}, "[17]": {"molecular_target": "Neu5Ac(a2-6)Gal(b1-4)GlcNAc(b1-2)Man(a1-6)[GlcNAc(b1-2)Man(a1-3)]Man(b1-4)GlcNAc(b1-4)GlcNAc", "outline": "as §1"}, "[18]": {"molecular_target": "Neu5Ac(a2-6)Gal(b1-4)GlcNAc(b1-2)Man(a1-6)[Man(a1-3)]Man(b1-4)GlcNAc(b1-4)GlcNAc", "outline": "as §1"}, "[19]": {"molecular_target": "Neu5Ac(a2-6)Gal(b1-4)GlcNAc(b1-2)[Neu5Ac(a2-6)Gal(b1-4)GlcNAc(b1-4)]Man(a1-3)[GlcNAc(b1-4)][Neu5Ac(a2-6)Gal(b1-4)GlcNAc(b1-4)Man(a1-6)]Man(b1-4)GlcNAc(b1-4)GlcNAc", "outline": "as §1"}, "[20]": {"molecular_target": "Neu5Ac(a2-6)Gal(b1-4)GlcNAc(b1-2)[Neu5Ac(a2-6)Gal(b1-4)GlcNAc(b1-6)]Man(a1-6)[Neu5Ac(a2-6)Gal(b1-4)GlcNAc(b1-2)Man(a1-3)][GlcNAc(b1-4)]Man(b1-4)GlcNAc(b1-4)GlcNAc", "outline": "as §1"}, "[21]": {"molecular_target": "Neu5Ac(a2-6)Gal(b1-4)GlcNAc(b1-3)Gal(b1-3)GlcNAc", "outline": "as §1"}, "[22]": {"molecular_target": "Neu5Ac(a2-6)Gal(b1-4)GlcNAc(b1-3)Gal(b1-4)GlcNAc", "outline": "as §1"}, "[23]": {"molecular_target": "Neu5Ac(a2-6)Gal(b1-4)GlcNAc(b1-3)Gal(b1-4)GlcNAc(b1-2)Man(a1-3)[Neu5Ac(a2-6)Gal(b1-4)GlcNAc(b1-3)Gal(b1-4)GlcNAc(b1-2)Man(a1-6)]GalNAc", "outline": "as §1"}, "[24]": {"molecular_target": "Neu5Ac(a2-6)Gal(b1-4)GlcNAc(b1-3)Gal(b1-4)GlcNAc(b1-3)Gal(b1-4)GlcNAc", "outline": "as §1"}, "[25]": {"molecular_target": "Neu5Ac(a2-6)Gal(b1-4)GlcNAc(b1-3)Gal(b1-4)GlcNAc(b1-3)Gal(b1-4)GlcNAc(b1-2)Man(a1-3)[Neu5Ac(a2-6)Gal(b1-4)GlcNAc(b1-3)Gal(b1-4)GlcNAc(b1-3)Gal(b1-4)GlcNAc(b1-2)Man(a1-6)]GalNAc", "outline": "as §1"}, "[26]": {"molecular_target": "Neu5Ac(a2-6)Gal(b1-4)GlcNAc(b1-3)Gal(b1-4)GlcNAc(b1-3)GalNAc", "outline": "as §1"}, "[27]": {"molecular_target": "Neu5Ac(a2-6)Gal(b1-4)GlcNAc(b1-3)Gal(b1-4)GlcNAc(b1-6)[Gal(b1-3)]GalNAc", "outline": "as §1"}, "[28]": {"molecular_target": "Neu5Ac(a2-6)Gal(b1-4)GlcNAc(b1-3)Gal(b1-4)[Fuc(a1-3)]GlcNAc(b1-3)Gal(b1-4)[Fuc(a1-3)]GlcNAc", "outline": "as §1"}, "[29]": {"molecular_target": "Neu5Ac(a2-6)Gal(b1-4)GlcNAc(b1-3)GalNAc", "outline": "as §1"}, "[30]": {"molecular_target": "Neu5Ac(a2-6)Gal(b1-4)GlcNAc(b1-3)[Neu5Ac(a2-6)Gal(b1-4)GlcNAc(b1-6)]GalNAc", "outline": "as §1"}, "[31]": {"molecular_target": "Neu5Ac(a2-6)Gal(b1-4)GlcNAc(b1-6)[Gal(b1-3)GlcNAc(b1-3)]Gal(b1-4)Glc", "outline": "as §1"}}, "note": "This is one part of the list.", "data": [{"binder": "B1", "values": [{"measurement": "glycan array binding signal (z-score)", "setting": "[1]", "value": -0.184}, {"measurement": "glycan array binding signal (z-score)", "setting": "[2]", "value": 0.314}, {"measurement": "glycan array binding signal (z-score)", "setting": "[3]", "value": -0.511}, {"measurement": "glycan array binding signal (z-score)", "setting": "Neu5Ac(a2-6)Gal", "value": -0.359}, {"measurement": "glycan array binding signal (z-score)", "setting": "[4]", "value": -0.226}, {"measurement": "glycan array binding signal (z-score)", "setting": "Neu5Ac(a2-6)Gal(b1-4)Glc", "value": -0.108}, {"measurement": "glycan array binding signal (z-score)", "setting": "[5]", "value": -0.062}, {"measurement": "glycan array binding signal (z-score)", "setting": "[6]", "value": -0.293}, {"measurement": "glycan array binding signal (z-score)", "setting": "[7]", "value": 0.126}, {"measurement": "glycan array binding signal (z-score)", "setting": "[8]", "value": 1.05}, {"measurement": "glycan array binding signal (z-score)", "setting": "[9]", "value": -0.206}, {"measurement": "glycan array binding signal (z-score)", "setting": "[10]", "value": -0.228}, {"measurement": "glycan array binding signal (z-score)", "setting": "[11]", "value": -0.245}, {"measurement": "glycan array binding signal (z-score)", "setting": "[12]", "value": -0.295}, {"measurement": "glycan array binding signal (z-score)", "setting": "[13]", "value": -0.173}, {"measurement": "glycan array binding signal (z-score)", "setting": "[14]", "value": -0.125}, {"measurement": "glycan array binding signal (z-score)", "setting": "[15]", "value": 0.633}, {"measurement": "glycan array binding signal (z-score)", "setting": "[16]", "value": -0.24}, {"measurement": "glycan array binding signal (z-score)", "setting": "[17]", "value": 0.169}, {"measurement": "glycan array binding signal (z-score)", "setting": "[18]", "value": -0.167}, {"measurement": "glycan array binding signal (z-score)", "setting": "[19]", "value": 0.063}, {"measurement": "glycan array binding signal (z-score)", "setting": "[20]", "value": -0.267}, {"measurement": "glycan array binding signal (z-score)", "setting": "[21]", "value": -0.422}, {"measurement": "glycan array binding signal (z-score)", "setting": "[22]", "value": 0.167}, {"measurement": "glycan array binding signal (z-score)", "setting": "[23]", "value": 0.866}, {"measurement": "glycan array binding signal (z-score)", "setting": "[24]", "value": -0.148}, {"measurement": "glycan array binding signal (z-score)", "setting": "[25]", "value": 1.5}, {"measurement": "glycan array binding signal (z-score)", "setting": "[26]", "value": 0.397}, {"measurement": "glycan array binding signal (z-score)", "setting": "[27]", "value": -0.249}, {"measurement": "glycan array binding signal (z-score)", "setting": "[28]", "value": 0.063}, {"measurement": "glycan array binding signal (z-score)", "setting": "[29]", "value": -0.255}, {"measurement": "glycan array binding signal (z-score)", "setting": "[30]", "value": -0.323}, {"measurement": "glycan array binding signal (z-score)", "setting": "[31]", "value": -0.387}]}]}
